In the supplement of paper PMC11732987, “Enantioselective OTUD7B fragment discovery through chemoproteomics screening and high-throughput optimisation” (Communications Chemistry, 2025):
The other results are listed elsewhere or left out. The data scatter; read single values as rough.

Sequences of proteins named here, by UniProt entry; tags and fusion partners are left off. A change or cut given only in a name is not applied to a line headed by its entry. Residues count along the entry.
UniProt P25054: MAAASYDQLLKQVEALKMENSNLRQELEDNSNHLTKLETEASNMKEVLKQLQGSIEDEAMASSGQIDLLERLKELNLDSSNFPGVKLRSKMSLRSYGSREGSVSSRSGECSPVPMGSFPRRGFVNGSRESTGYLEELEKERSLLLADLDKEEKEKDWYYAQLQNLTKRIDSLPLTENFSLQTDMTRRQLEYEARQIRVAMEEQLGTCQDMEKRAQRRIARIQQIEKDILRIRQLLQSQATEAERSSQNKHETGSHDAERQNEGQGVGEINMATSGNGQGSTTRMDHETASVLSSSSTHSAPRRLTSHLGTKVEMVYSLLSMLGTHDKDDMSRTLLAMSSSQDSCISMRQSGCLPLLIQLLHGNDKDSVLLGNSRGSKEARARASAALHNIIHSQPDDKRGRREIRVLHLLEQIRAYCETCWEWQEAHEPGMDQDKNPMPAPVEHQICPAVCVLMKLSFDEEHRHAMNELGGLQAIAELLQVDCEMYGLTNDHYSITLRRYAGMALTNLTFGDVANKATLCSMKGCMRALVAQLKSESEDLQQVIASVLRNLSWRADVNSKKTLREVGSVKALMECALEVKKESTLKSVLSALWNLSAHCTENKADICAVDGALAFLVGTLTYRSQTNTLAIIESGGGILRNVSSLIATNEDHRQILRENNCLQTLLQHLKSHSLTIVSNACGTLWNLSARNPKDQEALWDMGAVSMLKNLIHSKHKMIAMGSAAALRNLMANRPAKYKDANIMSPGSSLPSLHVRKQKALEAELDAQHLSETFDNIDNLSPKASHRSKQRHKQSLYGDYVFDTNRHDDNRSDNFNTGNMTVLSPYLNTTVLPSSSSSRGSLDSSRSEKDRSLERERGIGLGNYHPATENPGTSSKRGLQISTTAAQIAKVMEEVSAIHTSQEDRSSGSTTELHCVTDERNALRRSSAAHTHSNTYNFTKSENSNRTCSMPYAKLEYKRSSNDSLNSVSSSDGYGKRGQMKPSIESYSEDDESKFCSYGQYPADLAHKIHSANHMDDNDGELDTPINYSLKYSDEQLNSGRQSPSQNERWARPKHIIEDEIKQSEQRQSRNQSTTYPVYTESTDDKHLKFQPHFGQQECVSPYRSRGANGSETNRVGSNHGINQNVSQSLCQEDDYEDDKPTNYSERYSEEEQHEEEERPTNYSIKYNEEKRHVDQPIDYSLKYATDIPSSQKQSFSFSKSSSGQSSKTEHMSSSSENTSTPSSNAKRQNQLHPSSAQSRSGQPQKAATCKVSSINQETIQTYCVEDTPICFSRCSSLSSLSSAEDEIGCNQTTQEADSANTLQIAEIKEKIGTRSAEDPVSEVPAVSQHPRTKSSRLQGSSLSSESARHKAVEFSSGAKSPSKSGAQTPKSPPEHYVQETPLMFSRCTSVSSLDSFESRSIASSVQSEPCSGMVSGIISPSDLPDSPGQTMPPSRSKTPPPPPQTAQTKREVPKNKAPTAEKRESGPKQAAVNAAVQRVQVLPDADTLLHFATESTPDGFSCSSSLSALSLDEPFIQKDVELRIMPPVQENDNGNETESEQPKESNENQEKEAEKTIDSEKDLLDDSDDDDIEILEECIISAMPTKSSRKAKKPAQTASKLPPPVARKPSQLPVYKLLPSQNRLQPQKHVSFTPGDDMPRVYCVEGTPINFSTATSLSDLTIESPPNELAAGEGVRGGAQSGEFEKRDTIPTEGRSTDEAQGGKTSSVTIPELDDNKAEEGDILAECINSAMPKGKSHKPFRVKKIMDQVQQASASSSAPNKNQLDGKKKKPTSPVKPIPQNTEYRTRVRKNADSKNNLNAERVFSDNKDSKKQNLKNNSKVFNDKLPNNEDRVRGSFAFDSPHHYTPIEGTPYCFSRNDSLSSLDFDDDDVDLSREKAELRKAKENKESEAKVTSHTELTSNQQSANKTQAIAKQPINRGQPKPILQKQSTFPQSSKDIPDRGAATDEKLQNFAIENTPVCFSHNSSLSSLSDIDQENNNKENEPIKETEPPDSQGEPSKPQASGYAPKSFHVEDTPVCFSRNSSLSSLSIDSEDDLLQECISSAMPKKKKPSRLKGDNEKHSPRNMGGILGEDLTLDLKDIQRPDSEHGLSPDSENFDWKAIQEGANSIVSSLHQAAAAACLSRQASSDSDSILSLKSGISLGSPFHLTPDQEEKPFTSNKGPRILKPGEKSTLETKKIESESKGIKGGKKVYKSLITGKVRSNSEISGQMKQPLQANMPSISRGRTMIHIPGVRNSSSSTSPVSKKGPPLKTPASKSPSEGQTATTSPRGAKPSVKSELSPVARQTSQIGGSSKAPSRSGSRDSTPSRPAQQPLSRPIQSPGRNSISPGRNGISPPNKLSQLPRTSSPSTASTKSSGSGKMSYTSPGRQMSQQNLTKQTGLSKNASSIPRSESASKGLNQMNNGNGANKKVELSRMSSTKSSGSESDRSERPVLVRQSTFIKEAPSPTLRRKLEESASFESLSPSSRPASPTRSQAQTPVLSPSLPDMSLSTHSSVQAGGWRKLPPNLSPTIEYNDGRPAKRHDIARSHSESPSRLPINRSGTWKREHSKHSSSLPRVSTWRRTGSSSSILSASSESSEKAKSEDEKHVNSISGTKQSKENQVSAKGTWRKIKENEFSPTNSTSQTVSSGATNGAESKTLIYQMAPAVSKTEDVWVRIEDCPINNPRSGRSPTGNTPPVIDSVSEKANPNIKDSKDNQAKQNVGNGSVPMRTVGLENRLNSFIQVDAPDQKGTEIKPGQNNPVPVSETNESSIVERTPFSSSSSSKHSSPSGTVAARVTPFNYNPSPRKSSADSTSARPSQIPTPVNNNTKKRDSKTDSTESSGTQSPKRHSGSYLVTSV
UniProt Q9Y6D5: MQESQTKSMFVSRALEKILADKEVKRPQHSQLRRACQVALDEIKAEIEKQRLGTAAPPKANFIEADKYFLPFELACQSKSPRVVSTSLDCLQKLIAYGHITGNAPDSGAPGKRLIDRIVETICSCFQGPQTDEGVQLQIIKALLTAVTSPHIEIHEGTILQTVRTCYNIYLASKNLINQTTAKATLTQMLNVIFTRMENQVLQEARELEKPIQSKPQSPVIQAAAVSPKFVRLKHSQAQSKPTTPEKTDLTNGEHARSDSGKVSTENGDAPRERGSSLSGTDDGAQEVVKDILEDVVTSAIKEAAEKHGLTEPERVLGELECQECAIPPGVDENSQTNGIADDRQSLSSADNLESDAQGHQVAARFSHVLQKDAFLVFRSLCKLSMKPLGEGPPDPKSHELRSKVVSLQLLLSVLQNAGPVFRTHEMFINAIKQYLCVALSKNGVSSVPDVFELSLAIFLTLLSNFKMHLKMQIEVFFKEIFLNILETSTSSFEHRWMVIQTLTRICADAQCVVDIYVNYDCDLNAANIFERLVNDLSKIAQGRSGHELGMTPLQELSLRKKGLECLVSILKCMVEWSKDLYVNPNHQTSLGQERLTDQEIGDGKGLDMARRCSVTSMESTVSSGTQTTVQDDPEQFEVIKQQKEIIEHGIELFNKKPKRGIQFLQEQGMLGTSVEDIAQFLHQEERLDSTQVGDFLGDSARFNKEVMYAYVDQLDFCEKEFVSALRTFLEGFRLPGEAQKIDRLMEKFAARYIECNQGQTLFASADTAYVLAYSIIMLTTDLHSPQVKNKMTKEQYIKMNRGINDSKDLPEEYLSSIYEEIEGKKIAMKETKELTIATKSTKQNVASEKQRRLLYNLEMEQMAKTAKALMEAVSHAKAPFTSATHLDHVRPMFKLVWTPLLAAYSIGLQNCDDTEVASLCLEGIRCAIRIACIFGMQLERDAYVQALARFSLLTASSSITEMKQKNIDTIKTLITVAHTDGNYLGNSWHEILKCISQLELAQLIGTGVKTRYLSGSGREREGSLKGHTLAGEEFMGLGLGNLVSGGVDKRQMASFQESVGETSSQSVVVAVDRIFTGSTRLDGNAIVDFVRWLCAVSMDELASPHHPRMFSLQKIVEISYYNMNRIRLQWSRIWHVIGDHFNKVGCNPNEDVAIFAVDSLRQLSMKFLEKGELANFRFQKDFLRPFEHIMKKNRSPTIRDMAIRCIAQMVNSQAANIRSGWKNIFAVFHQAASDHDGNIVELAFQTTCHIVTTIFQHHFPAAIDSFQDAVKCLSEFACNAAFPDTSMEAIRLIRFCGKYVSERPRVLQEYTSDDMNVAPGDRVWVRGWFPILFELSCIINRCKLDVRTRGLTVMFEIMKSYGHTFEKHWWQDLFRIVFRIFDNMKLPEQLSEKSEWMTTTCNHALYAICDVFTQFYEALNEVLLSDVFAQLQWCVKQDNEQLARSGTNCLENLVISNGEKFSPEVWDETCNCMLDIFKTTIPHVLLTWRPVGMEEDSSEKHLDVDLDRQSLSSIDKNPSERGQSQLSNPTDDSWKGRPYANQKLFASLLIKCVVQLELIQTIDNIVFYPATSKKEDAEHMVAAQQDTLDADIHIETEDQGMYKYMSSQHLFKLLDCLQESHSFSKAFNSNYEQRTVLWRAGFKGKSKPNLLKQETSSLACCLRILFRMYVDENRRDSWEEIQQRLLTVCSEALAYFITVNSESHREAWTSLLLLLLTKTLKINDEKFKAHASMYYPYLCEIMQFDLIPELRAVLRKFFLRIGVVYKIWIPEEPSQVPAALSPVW
UniProt O15085, 399-420: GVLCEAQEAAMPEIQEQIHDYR
UniProt Q9NQW6: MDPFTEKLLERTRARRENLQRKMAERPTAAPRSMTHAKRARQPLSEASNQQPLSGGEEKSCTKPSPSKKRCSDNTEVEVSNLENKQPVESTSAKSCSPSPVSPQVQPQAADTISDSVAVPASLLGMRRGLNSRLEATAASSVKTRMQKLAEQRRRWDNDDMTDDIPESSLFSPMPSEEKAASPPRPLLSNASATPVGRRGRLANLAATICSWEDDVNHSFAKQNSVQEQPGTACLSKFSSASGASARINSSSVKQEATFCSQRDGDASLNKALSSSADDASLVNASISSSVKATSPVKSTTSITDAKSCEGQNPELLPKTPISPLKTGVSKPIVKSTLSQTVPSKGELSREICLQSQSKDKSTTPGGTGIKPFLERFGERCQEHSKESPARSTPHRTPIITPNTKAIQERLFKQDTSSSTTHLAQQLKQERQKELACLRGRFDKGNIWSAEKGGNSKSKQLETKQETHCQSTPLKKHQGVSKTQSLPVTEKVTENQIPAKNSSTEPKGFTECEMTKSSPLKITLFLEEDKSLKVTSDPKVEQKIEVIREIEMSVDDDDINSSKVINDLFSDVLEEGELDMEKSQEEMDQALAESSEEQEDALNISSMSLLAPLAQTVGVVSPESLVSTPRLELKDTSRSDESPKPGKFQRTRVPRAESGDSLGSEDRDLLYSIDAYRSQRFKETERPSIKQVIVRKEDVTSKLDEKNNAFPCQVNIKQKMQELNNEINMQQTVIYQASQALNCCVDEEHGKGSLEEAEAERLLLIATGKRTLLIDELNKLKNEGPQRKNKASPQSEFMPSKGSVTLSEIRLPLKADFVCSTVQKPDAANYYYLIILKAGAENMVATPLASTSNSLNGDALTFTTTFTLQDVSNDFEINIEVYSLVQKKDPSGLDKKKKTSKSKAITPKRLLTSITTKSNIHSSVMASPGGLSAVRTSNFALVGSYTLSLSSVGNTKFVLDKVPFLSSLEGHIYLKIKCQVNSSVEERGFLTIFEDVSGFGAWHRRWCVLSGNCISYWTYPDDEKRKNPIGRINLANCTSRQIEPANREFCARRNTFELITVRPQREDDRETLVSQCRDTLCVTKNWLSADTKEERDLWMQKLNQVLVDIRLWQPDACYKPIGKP
UniProt Q8IVW6: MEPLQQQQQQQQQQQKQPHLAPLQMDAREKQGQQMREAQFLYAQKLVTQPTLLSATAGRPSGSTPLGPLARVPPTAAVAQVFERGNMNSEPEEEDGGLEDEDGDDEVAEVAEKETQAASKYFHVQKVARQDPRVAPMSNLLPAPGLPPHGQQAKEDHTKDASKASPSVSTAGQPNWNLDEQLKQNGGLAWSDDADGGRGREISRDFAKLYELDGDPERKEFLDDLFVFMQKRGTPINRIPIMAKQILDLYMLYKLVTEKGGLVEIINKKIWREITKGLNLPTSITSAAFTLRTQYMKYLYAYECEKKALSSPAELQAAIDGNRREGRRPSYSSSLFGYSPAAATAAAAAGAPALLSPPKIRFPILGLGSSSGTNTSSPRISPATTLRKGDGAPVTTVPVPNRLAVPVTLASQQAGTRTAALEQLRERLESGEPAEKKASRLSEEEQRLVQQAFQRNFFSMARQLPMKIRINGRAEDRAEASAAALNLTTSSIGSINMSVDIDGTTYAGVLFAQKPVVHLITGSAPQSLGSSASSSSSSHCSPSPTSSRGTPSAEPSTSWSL

Key:
[1] = compound: ClCC(=O)N[C@@H]1CCCc2ccccc12; experiment: log2 mean competition ratio of IA-DTB cysteine labelling (DMSO/compound) (log2 ratio); higher = stronger cysteine engagement by compound; conditions: treatment time: 4 h, cell line lysate: HEK293T
Experimental: (§1)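 IA-DTB competitive cysteine chemoproteomics in HEK293T RIPA lysate. Lysates were treated with compound 29 or 30 at 50 or 200 µM for 4 h, then IA-DTB (500 µM, 1 h), trypsin-digested, NeutrAvidin-enriched and analysed by diaPASEF. Competition ratio = intensity DMSO / intensity compound (n=4 treated, n=64 DMSO); binding: mean log2 CR ≥ 1 and p ≤ 0.05 plus QC filters. Target is the cysteine site.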

[2] = compound: ClCC(=O)N[C@H]1CCCc2ccccc12; experiment: as above; conditions: treatment time: 4 h, cell line lysate: HEK293T
Experimental: as §1

| Target | log2 mean competition ratio ([1]; 50 µM) | log2 mean competition ratio ([1]; 200 µM) | log2 mean competition ratio ([2]; 50 µM) | log2 mean competition ratio ([2]; 200 µM) |
| --- | --- | --- | --- | --- |
| ARFGEF1 C37 (UniProt Q9Y6D6) | -0.196 | 0.26 | -0.638 | 0.188 |
| APBB1 C672 | -0.153 | -0.177 | 0.377 | -0.0317 |
| ARHGAP22 C366 (UniProt Q7Z5H3) | 0.368 | 0.164 | -0.438 | 0.292 |
| ARHGEF12 C1128 (UniProt Q9NZN5) | -0.144 | 0.0794 | -0.165 | 0.124 |
| APC C110 (UniProt P25054) | -0.025 | -0.0468 | 0.222 | -0.119 |
| ASCC3 C1874 (UniProt Q8N3C0) | 0.042 | -0.28 | -0.0292 | -0.378 |
| ASB3 C274 (UniProt Q9Y575) | -0.124 | 0.178 | -0.0492 | 0.123 |
| ARHGEF39 C5 | 0.0224 | -0.0717 | -0.319 | 0.428 |
| AP3M1 C29 (UniProt Q9Y2T2) | -0.141 | 0.0805 | 0.177 | 0.0266 |
| ARHGEF2 C342 | -0.0756 | -0.000918 | 0.254 | 0.0865 |
| ANKS1A C633 (UniProt Q92625) | -0.321 | -0.00994 | -0.0603 | 0.235 |
| ANKRD17 C2063 (UniProt O75179) | -0.0238 | -0.0576 | 0.14 | 0.127 |
| ARFGEF1 C622 (UniProt Q9Y6D6) | 0.277 | -0.067 | 0.177 | -0.171 |
| AQR C595 (UniProt O60306) | -0.0938 | 0.0365 | -0.348 | -0.00117 |
| ARFGEF2 C1450 (UniProt Q9Y6D5) | 0.0216 | 0.00509 | -0.0358 | -0.00364 |
| ARHGEF11 C402 (UniProt O15085) | 0.299 | -0.0468 | 0.318 | -0.075 |
| ANLN C512 (UniProt Q9NQW6) | -0.089 | -0.0696 | 0.064 | -0.0212 |
| ARHGAP21 C1152 (UniProt Q5T5U3) | 0.11 | -0.32 | -0.0104 | 0.104 |
| ARID3B C304 (UniProt Q8IVW6) | 0.0775 | -0.235 | -0.0655 | -0.26 |
| ARHGAP35 C620 (UniProt Q9NRY4) | -0.105 | 0.0367 | -0.779 | -0.0855 |
| ARMT1 C315 (UniProt Q9H993) | -0.0822 | -0.274 | -0.278 | -0.225 |
| ARHGEF2 C306 | -0.171 | 0.334 | 0.132 | 0.353 |
| ARID2 C1271 (UniProt Q68CP9) | -0.0527 | 0.201 | 0.237 | 0.219 |
| ANXA7 C285 (UniProt P20073) | -0.0234 | 0.103 | 0.128 | -0.233 |
| ARHGEF6 C182 (UniProt Q15052) | -0.19 | 0.000692 | -0.61 | 0.127 |

Rewritten comma-delimited: entries from further up.
Target,log2 mean competition ratio ([1]; 50 µM),log2 mean competition ratio ([1]; 200 µM),log2 mean competition ratio ([2]; 50 µM),log2 mean competition ratio ([2]; 200 µM)
ANXA7 C285 (UniProt P20073),-0.0234,0.103,0.128,-0.233
ARHGEF6 C182 (UniProt Q15052),-0.19,0.000692,-0.61,0.127
